Substitutions are numbered along the chain they refer to. Results are given in words; binding and its absence hold for the method and conditions named. Some results given as binding are weak or reduced against the parent protein; the word gives no strength.
B1: VH domain clone B4 (SEQ ID NO: 2) (protein)
VH: QVQLVQSGAEVKKPGASVKVSCKASGYTFTSYAISWVRQAPGQGLEWMGGIIPIFGTANYAQKFQGRVTITADESTSTAYMELSSLRSEDTAVYYCAIHGGDRSYWGQGTLVTVSS
B2: VH domain clone G2 (SEQ ID NO: 3) (protein)
VH: B1 VH with S31G, E89K
B3: XB2202 VH domain (protein)
VH: QVQLVQSGAEVKKPGSSVRVSCKASGGTFSRHAISWVRQAPGQGLEWIGGILPILKTPNYAQRFQGRVTINADESTSTVYMEMSSLRSEDTAVYYCATHGGDRSYWGQGTLVTVSS
B4: XB2708 VH domain (protein)
VH: QVQLVQSGGGVVQPGGSLRLSCAASGFTSRSYGMHWVRQAPGKGLEWVAFILFDGNNKYYADSVKGRFTISSDNSKNTLYLQMNSLRAEDTAVYYCATHGGDRSYWGQGTLVTVSS
B5: VH domain clone A12. (SEQ ID NO: 49) (protein)
VH: QVQLVQSGAEVKKPGASVKVSCKASGYTFISHGMSWVRQAPGQGLEWMGWISADNGNTKYAQKFQDRVTLTTDTSTSTAYLELRSLRSDDTAVYYCATHGGDRSYWGQGTLVTVSS
B6: VH domain clone E11. (SEQ ID NO: 58) (protein)
VH: QVQLVESGGGVVQPGRSLRLSCAASGFTFSSYWMHWVRQAPGKGLVWVSRINNDGSSTSYADSVKGRFTISRDTAKNTLYLQMNSLRAEDTAVYYCATHGGDRSYWGQGTLVTVSS
B7: VH domain clone G12. (SEQ ID NO: 53) (protein)
VH: QVQLVQSGAEVKKPGSSVKVSCKASGGAFNAYPISWVRQAPGQGLEWMGGIIPVSGTPNYAQKFQGRVTITADKSTYTAYMELSSLRSEDTAVYYCATHGGDRSYWGQGTLVTVSS
B8: VH domain clone F08. (SEQ ID NO: 56) (protein)
VH: B1 VH with Y32S, A33Y, S35H, E74K, V93M, I98T
B9: VH domain clone C06. (SEQ ID NO: 54) (protein)
VH: B1 VH with V2M, K23M, S31G, Y32H, A33Y, S35H, M81T, I98T
B10: VH domain clone H12. (SEQ ID NO: 52) (protein)
VH: B1 VH with S31D, Y32N, A33Y, I34V, S35H, I98T
B11: VH domain clone E9. (SEQ ID NO: 57) (protein)
VH: QVQLVESGAEVRKPGESLQISCKASGYRFTNYWIGWVRQMPGKGLEWMGITYPADSTTVYSPSFQGQVTISADKSISTVFLQWSSLRSEDTAVYYCATHGGDRSYWGQGTLVTVSS
B12: VH domain clone G3. (SEQ ID NO: 50) (protein)
VH: QVQLVQSGAEVKKPGASVKVSCKVSGYTLTELSMHWVRQAPGKGLEWMGGFDPEDGETIYAQKFQGRVTMTRDTSISTAYMELSRLRSDDTAVYYCATHGGDRSYWGQGTLVTVSS
B13: VH domain clone F05. (SEQ ID NO: 51) (protein)
VH: B12 VH with K13R, V24A, R72E, I76T, S77D, R85S, D89E
B14: VH domain clone C08. (SEQ ID NO: 60) (protein)
VH: EVQLLESEGGLVQPGGSLRLSCTASGFSFNAFWMHWVRQAPGKGLEWVSRISIDGTTTTYADSVQGRFTISRDNARNTLYLQMNSLRAEDAAVYYCATHGGDRSYWSQGTLVTVSS
B15: VH domain clone H11. (SEQ ID NO: 59) (protein)
VH: QVQLLESGAEVKNPGASVKVSCKASGYPFSAYYIQWVRQAPGQGLEWMGWLNPNSGDTHSAQKFQGRVTMTRDTSISTAYMELSGLTSDDTAVYYCATHGGDRSYWGQGTLVTVSS
B16: VH domain clone D03. (SEQ ID NO: 62) (protein)
VH: QVQLVQSGGGLVQPGGSLRLSCVASGFTFGNDWMHWVRQAPGKGLVWVSRINADGTSTAYAESVKGRFTVSRDNAKNTLYLQMNGLRAEDTAVYYCATHGGDRSYWGQGTLVTVSS
B17: VH domain clone A06. (SEQ ID NO: 65) (protein)
VH: QVQLVQSGGGLVQPGGSLRLSCAASGFTFSGHWMHWVRQVPGKGLVWVSHISNDGSITRYADSVKGRFTVARDNAKNTMYLQMNSLRAEDTAVYYCATHGGDRSYWGQGTLVTVSS
B18: VH domain clone C09. (SEQ ID NO: 64) (protein)
VH: QVQLVQSGGALVQPGGSLRLSCAASGFTLSNNAMSWVRQAPGKRLEWVSAIDGSGGTTYYAGSVKGRFTISSDNSKNTVFLQMNSLRAEDTAVYYCATHGGDRSYWGQGTLVTVSS
B19: VH domain clone H01. (SEQ ID NO: 67) (protein)
VH: QVQLVQSGGGLVQPGGSLRLSCAASGFTLSSDWMHWVRQAPGKGLVWVSRISSDGSTTAYADSVRGRFTISRDNAKNTLYLQMNSLRAEDTAVYYCATHGGDRSYWGQGTLVTVSS
B20: VH domain clone G07. (SEQ ID NO: 69) (protein)
VH: B19 VH with L29F, K43E, T57S, R65K, L79V, Y80S
B21: VH domain clone G04. (SEQ ID NO: 68) (protein)
VH: B19 VH with A75T
B22: VH domain clone C05. (SEQ ID NO: 66) (protein)
VH: QVQLVQSGGGLVKPGGSLRLSCAASGFIFSSNWMHWVRQVPGKGLEWVSRIKTDGSSTSYADSVKGRFTISRDNAKNTLYLQMNSLRAEDTAVYYCATHGGDRSYWGQGTLVTVSS
B23: VH domain clone A10. (SEQ ID NO: 63) (protein)
VH: QVQLVQSGGGLVQPGRSLRLSCAASGFTFDDYAMNWVRQAPGKGLEWVSLIYSDGSTYYADSVKGRFTISRDNSKKTLYLQMNNLRVEDTAVYYCATHGGDRSYWGQGTLVTVSS

The chains behind the UniProt entries cited, without tags or fusion partners. Where a name states a change or a piece, a line headed by the entry shows the natural chain unless it says otherwise. Residues count along the entry.
UniProt P05622, residues 32-530: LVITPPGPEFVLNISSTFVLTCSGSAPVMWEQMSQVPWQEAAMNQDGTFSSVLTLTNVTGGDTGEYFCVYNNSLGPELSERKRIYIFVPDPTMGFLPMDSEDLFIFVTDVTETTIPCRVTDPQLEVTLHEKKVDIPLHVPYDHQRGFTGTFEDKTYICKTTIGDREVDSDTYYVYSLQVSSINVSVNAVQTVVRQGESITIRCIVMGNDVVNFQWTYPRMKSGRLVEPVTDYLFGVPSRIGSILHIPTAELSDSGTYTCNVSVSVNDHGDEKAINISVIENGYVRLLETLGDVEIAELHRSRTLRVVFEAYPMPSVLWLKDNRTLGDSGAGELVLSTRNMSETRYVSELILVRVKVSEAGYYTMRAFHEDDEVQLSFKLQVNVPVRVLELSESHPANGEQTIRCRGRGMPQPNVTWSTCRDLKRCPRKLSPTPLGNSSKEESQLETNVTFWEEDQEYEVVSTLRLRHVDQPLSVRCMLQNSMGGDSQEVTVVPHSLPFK

These binders were tested against human PDGFRb (human) (UniProt P09619) (assay: DNA display selection, six rounds on human PDGFRb).

| binding | Binder |
| --- | --- |
| binds | B1 |
| binds | B2 |

What follows are binders tested against human PDGFR-hIgG1-Fc chimeric fusion protein (human) (UniProt P09619) (assay: SPR (Biacore T100), PDGFR-hIgG1-Fc captured by anti-hIgG1 Fc).

| binding | Binder |
| --- | --- |
| binds | B3 |
| binds | B4 |

Each binder was assayed against mouse PDGFR-hIgG1-Fc chimeric fusion protein (mouse; human) (UniProt P05622) in the same assay as above.

| binding | Binder |
| --- | --- |
| binds | B3 |
| binds | B4 |

Each binder was assayed against human PDGFRb (human) (UniProt P09619) (assay: dsDNA display selection of the HCDR3 shuffled VH library; clone sequenced from the selected pool).

| binding | Binder |
| --- | --- |
| binds | B5 |
| binds | B6 |
| binds | B7 |
| binds | B8 |
| binds | B9 |
| binds | B10 |
| binds | B11 |
| binds | B12 |
| binds | B13 |
| binds | B3 |
| binds | B14 |
| binds | B15 |

Each binder was assayed against human PDGFRb (human) (UniProt P09619) (assay: dsDNA display selection of the HCDR3 shuffled VH library with human PDGFRb and off rate selection).

| binding | Binder |
| --- | --- |
| binds | B16 |
| binds | B17 |
| binds | B18 |
| binds | B19 |
| binds | B20 |
| binds | B21 |
| binds | B22 |
| binds | B23 |
| binds | B4 |

— US20140113831A1
